# Test results as given in PubChem BioAssay AID504444 (National Center for Advancing Translational Sciences (NCATS), 2011).
# Hit rate of the full screen: of about 360,000 compounds, about 7,500 (2.1%) were called active. The inconclusive results got no clear call from the source; some entries with a clear call stand among them for comparison. Calls follow the shape of the dose curve; as a rule, active = well fitted inhibition curve with a large enough effect; inconclusive = small, poorly fitted or top-dose-only effect, or effect the other way; inactive = flat fitted curve, though single readings scatter. Where the call is inconclusive, the potency comes from a doubtful curve fit.
# Experiment: Nrf2 qHTS screen for inhibitors; also: nearly all actives have a fitted effect of over 60% in size
# Conditions: A549 ARE-Fluc reporter, luciferase luminescence, 18-24 h; series mostly up to 46 µM
# In short: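 A549 ARE_Fluc cells (5000/well, 5% FBS OPTI-MEM) pre-incubated 2 h, then treated with compounds 18-24 h at 37C/5% CO2 in concentration-response. CellTiter-Fluor viability read first; BugLite luciferase luminescence after 15 min at room temperature gives Nrf2 activity.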
# Potency is read from the fitted curve at half-maximal effect.
row,Compound,Potency
1,O=C(COc1ccccc1)NNC(=S)NC(=O)c1ccccc1,"inconclusive: 25.9 µM [falling, single point]"
2,O=C(CCc1ccccc1)NC(NC(=S)Nc1cccc(Cl)c1)C(Cl)(Cl)Cl (stereo not drawn),"inconclusive: 25.9 µM [falling, partial curve, poor fit]"
3,CCc1ccc(NC(=O)Cn2ccn(-c3ccc(C)c(C)c3)c(=O)c2=O)cc1,"inconclusive: 29.1 µM [activator, single point]"
4,CCOc1ccc(N=Cc2c(O)n(-c3cccc(C)n3)c(=O)c3ccccc23)cc1,"inconclusive: 23.1 µM [falling, partial curve, poor fit]"
5,Cc1ccc(S(=O)(=O)Nc2ccccc2C(=O)N2CCCCCC2)cc1,inactive
6,N#Cc1c(-c2ccc(F)cc2)cc(-c2cccs2)nc1SCC(=O)O,"inconclusive: 29.1 µM [falling, single point]"
7,CCOc1cc(Cl)c(S(=O)(=O)n2ccnc2)cc1Cl,inactive
8,CC(OC(=O)CNC(=O)c1ccccc1F)C(=O)Nc1nc(-c2ccccc2)cs1 (stereo not drawn),"inconclusive: 23.1 µM [activator, single point]"
9,CCOC(=O)C1CCN(C(=O)CNC(=O)c2nn(-c3ccc(OC)c(OC)c3)c(=O)c3ccccc23)CC1,"inconclusive: 3.66 µM [activator, full curve, poor fit]"
10,Cc1cc(C)n(C(C)CC(=O)Nc2ccc(C)c(N(C)C)c2)n1 (stereo not drawn),inactive
11,CC(=O)Nc1ccc(OCC(O)CN2CCN(c3ccc(C)c(Cl)c3)CC2)cc1 (stereo not drawn),"inconclusive: 16.4 µM [falling, single point]"
12,CC(C)(C)OC(=O)NCCCCCNC(=O)c1ncn(Cc2ccccc2)c1C(=O)NCCCCCNC(=O)OC(C)(C)C,"inconclusive: 20.6 µM [falling, partial curve]"
13,CCOC(=O)N1CCC(NC(=O)c2ccc3c(c2)sc2nc(-c4ccccc4)cn23)CC1,inactive
14,Cc1c(Cl)cnc(NC(=O)COC(=O)c2ccc3ncsc3c2)c1Cl,"inconclusive: 20.6 µM [activator, single point]"
15,Cc1ccc(OCC(=O)Nc2ccc(N3CCN(C(=O)c4ccco4)CC3)cc2)cc1,active: 20.6 µM
16,OC[C@@H]1CCC[C@@H](n2cnc3c(=S)nc[nH]c32)O1,inactive
17,O=[N+]([O-])c1ccc(O)c(/C=N/NC(=S)Nc2ccc(Cl)cc2Cl)c1,inactive
18,O=C1OC(Cc2ccccn2)C(O)=C1C1=NCCCCN1 (stereo not drawn),"inconclusive: 10.3 µM [activator, partial curve, poor fit]"
19,Cc1nnc(N2CCOCC2)c2nn(-c3ccccc3)c(C)c12,inactive
20,Cc1cccc(C2CC(=O)Nc3cc4c(cc32)OCO4)c1 (stereo not drawn),"inconclusive: 23.1 µM [falling, partial curve]"
21,COc1ccccc1NC(=O)Cn1nnc(-c2ccccc2NC(=O)c2cc3ccccc3oc2=O)n1,"inconclusive: 23.1 µM [activator, partial curve]"
22,CC(C)c1ccc(NC(=S)NC2CCCCCC2)cc1,"inconclusive: 3.66 µM [activator, full curve]"
23,Cc1cc(NCCCn2ccnc2)n2nc(C)c(-c3ccccc3)c2n1,"inconclusive: 6.51 µM [activator, full curve]"

# Exported as tab-separated lines: entries from further up
row	Compound	Potency
3	CCc1ccc(NC(=O)Cn2ccn(-c3ccc(C)c(C)c3)c(=O)c2=O)cc1	inconclusive: 29.1 µM [activator, single point]
10	Cc1cc(C)n(C(C)CC(=O)Nc2ccc(C)c(N(C)C)c2)n1 (stereo not drawn)	inactive
13	CCOC(=O)N1CCC(NC(=O)c2ccc3c(c2)sc2nc(-c4ccccc4)cn23)CC1	inactive

# Further entries:

row,Compound,Potency
1,COc1ccc(CNC(=O)CCc2c(C)c3cc4c(C)c(C)oc4cc3oc2=O)cc1OC,inactive
2,CCN1CCN(c2ccc(S(=O)(=O)N3CCCCC3)cc2NC(=O)/C=C/c2ccc([N+](=O)[O-])cc2)CC1,"inconclusive: 14.6 µM [falling, partial curve, poor fit]"
3,CCCCc1c(C)[nH]c2nc3ccccc3n2c1=O,"inconclusive: 10.3 µM [activator, partial curve]"
4,COc1ccc(-c2c(C(C)=O)c(C)nc3sc4c(=N)n(N)cnc4c23)cc1,inactive
5,O=c1[nH]c2c(oc3ccccc32)c(=O)n1Cc1ccccc1,"inconclusive: 4.11 µM [activator, full curve, poor fit]"
6,Cc1ccc(Cn2ccc(NC(=O)c3noc4c3CCc3ccccc3-4)n2)cc1,"inconclusive: 6.51 µM [falling, full curve, poor fit]"
7,N=c1n(CCN2CCCCC2)c2ccccc2n1CC(=O)c1cccs1,inactive
8,O=C(CCn1ccc2cc(S(=O)(=O)N3CCCC3)ccc21)NCc1ccccc1Br,inactive
9,CC1S/C(=N/N=C/c2ccco2)N(Cc2ccccc2)C1=O (stereo not drawn),"inconclusive: 10.3 µM [activator, partial curve, poor fit]"
10,CC(Nc1c([N+](=O)[O-])c(=O)oc2ccccc12)C(Cl)c1ccccc1 (stereo not drawn),"inconclusive: 9.2 µM [falling, partial curve]"
11,CNC[C@H](CC1CCCCC1)NC[C@H](CO)NCC1(c2ccccc2)CC1,inactive
12,CCC(C)(C)n1nnnc1CN(Cc1ccco1)Cc1cc2cc3c(cc2[nH]c1=O)OCO3,inactive
13,CSc1nc(N)nc2c1ncn2CC(=O)Nc1ccc(C)c(C)c1,"inconclusive: 16.4 µM [falling, single point]"
14,COc1ccc(N2CCN(S(=O)(=O)c3ccc(C(=O)NC4CCCC4)cc3)CC2)cc1,"inconclusive: 2.59 µM [falling, full curve, poor fit]"
15,CC(=O)c1ccc(N2CCN(C(=O)c3nn(Cc4ccccc4)c(=O)c4ccccc34)CC2)cc1,"inconclusive: 20.6 µM [falling, single point]"
16,Cc1cc(S(=O)(=O)NCC(c2ccccc2)c2ccccc2)ccc1-n1cnnn1,"inconclusive: 0.92 µM [falling, full curve, poor fit]"
17,O=C(CN1C(=O)c2cccnc2Oc2ccc(Cl)cc21)Nc1cccc(C(F)(F)F)c1,"inconclusive: 23.1 µM [falling, single point]"
18,O=C(Nc1cccs1)Nc1c(F)cc(F)cc1Br,"inconclusive: 8.2 µM [falling, partial curve, poor fit]"
19,Cc1ccc(NC(=O)CCNC(=O)c2ccc([N+](=O)[O-])cc2)cc1S(=O)(=O)N1CCOCC1,inactive
20,Cc1cc(=O)oc2cc(OCC(=O)NCCc3ccccc3)ccc12,inactive
21,COC(=O)c1[nH]c2ccccc2c1NC(=O)CNC1CCCCC1,inactive
22,CCOC(=O)CNc1nc(C(C)(C)C)nc2c1nnn2Cc1ccccc1,"inconclusive: 16.4 µM [falling, single point]"
23,CCCCNC(=O)Nc1ncn[nH]1,inactive

row,Compound,Potency
1,Cc1cc(C)c2nc3nc(C)c(C)cc3c(N)c2c1,"inconclusive: 8.2 µM [falling, partial curve]"
2,O=C(Nc1ccc(F)cc1)C1CCCN(S(=O)(=O)c2cccc3cccnc23)C1 (stereo not drawn),"inconclusive: 16.4 µM [falling, single point]"
3,O=C(CC(=O)N/N=C/c1ccc(F)cc1)N/N=C/c1ccc(F)cc1,"inconclusive: 0.116 µM [falling, partial curve, poor fit]"
4,O=C(CSc1nnc(-c2ccccc2F)o1)N1CCCC1,"inconclusive: 23.1 µM [activator, single point]"
5,CC(C)(C)NC(=O)NC(=O)COc1ccccc1C#N,"inconclusive: 3.26 µM [activator, full curve]"
6,O=C(Nc1nc2ccc(F)cc2s1)C1=NN(c2ccccc2)C(=O)CC1,"inconclusive: 18.4 µM [activator, partial curve]"
7,Cc1ccc(CSc2ncnc3c2cnn3Cc2ccccc2)cc1C,"inconclusive: 11.6 µM [falling, partial curve, poor fit]"
8,O=C(NCC(c1ccco1)N1CCCC1)c1ccccc1Sc1ccc(C(F)(F)F)cc1[N+](=O)[O-] (stereo not drawn),"inconclusive: 5.8 µM [activator, partial curve, poor fit]"
9,O=C(Cn1cnc2c(cnn2-c2ccccc2)c1=O)OCc1ccccc1,"inconclusive: 16.4 µM [activator, single point]"
10,COc1ccc2[nH]c(C(=O)O)c(CCNC(C)=O)c2c1,inactive
11,CCCCNS(=O)(=O)c1ccc(NC(=O)C2c3ccccc3Oc3ccccc32)cc1,"inconclusive: 23.1 µM [falling, single point]"
12,CCOC(=O)c1sc(NC(=O)c2ccoc2C)c(C(N)=O)c1C,"inconclusive: 1.46 µM [falling, partial curve]"
13,CN(Cc1cnc2nc(N)nc(N)c2n1)c1ccc(C(=O)NC(CCC(=O)O)C(=O)O)c2ccccc12 (stereo not drawn),active: 0.0411 µM
14,Cc1ccc(Nc2c(-c3ccccn3)nc3cc(C)ccn23)cc1,"inconclusive: 29.1 µM [falling, single point]"
15,COc1ccc(CCNC(=O)CSc2cn(Cc3cccc(C)c3)c3ccccc23)cc1OC,"inconclusive: 29.1 µM [falling, single point]"
16,COC(=O)c1c(NC(=O)CC2SC(N)=NC2=O)sc(C)c1C (stereo not drawn),inactive
17,CN(C)CC(=O)Nc1ccc2cn[nH]c2c1,"inconclusive: 29.1 µM [falling, single point]"
18,COc1ccc(NC(NC(=O)c2cccnc2)C(Cl)(Cl)Cl)cc1 (stereo not drawn),"inconclusive: 2.59 µM [activator, single point]"
19,Cn1c(SCC2CCCO2)nnc1-c1cccc([N+](=O)[O-])c1 (stereo not drawn),"inconclusive: 2.91 µM [falling, partial curve]"
20,Cc1cc(Nc2cccc(C(F)(F)F)c2)nc2ccc(NC(=O)c3cccc(Cl)c3)cc12,active: 25.9 µM
21,COc1ccc(CNc2nc(Cl)nc3nc[nH]c23)cc1,inactive
22,CCOc1ccc2[nH]c(=O)c(CN(CC3CCCN3CC)C(=O)NCc3ccccc3)cc2c1 (stereo not drawn),"inconclusive: 0.461 µM [activator, full curve, poor fit]"
